Experimental data published in patent US8421457B2, “Methods and systems for magnetically resonating both a subject and a substance administered to the subject” (Applied Magnetics, LLC, priority 2008, dated 2013).

Test system: fibromyalgia patients
Assay: Case reports: fibromyalgia, drugs combined with MR treatment
Type: in vivo, human
Details: same subject; thirteen MR treatments within a two-month period
Procedure: In one example, a person experienced fibromyalgia for a number of years. The subject also experienced insomnia, restless legs, and chronic fatigue. The subject took the drug Naproxen (Aleve). The subject received seven consecutive days of 1 to 1.5 hour treatments.
Their primary complaint was back pain. […] The subject received thirteen treatments within a two-month period. […] Approximately two months after completing their first series of treatment, they began a second regimen of ten treatments within a two-month period.
In a further example, a person at least fifty years old suffered from fibromyalgia for a number of years. […] The subject received daily (when possible) treatments for approximately one year.

COC(=O)C1=C(C)NC(C)=C(C(=O)OC)C1c1ccccc1[N+](=O)[O-] [Nifedipine]
pain level after treatment, first series: 0.5
